Drawing on article PMC7785020, “A unique hormonal recognition feature of the human glucagon-like peptide-2 receptor” (Cell Research, 2020), this text covers binding for 2 substances.

Amino acid sequences for entries named in this document (tags omitted).
UniProt P54311: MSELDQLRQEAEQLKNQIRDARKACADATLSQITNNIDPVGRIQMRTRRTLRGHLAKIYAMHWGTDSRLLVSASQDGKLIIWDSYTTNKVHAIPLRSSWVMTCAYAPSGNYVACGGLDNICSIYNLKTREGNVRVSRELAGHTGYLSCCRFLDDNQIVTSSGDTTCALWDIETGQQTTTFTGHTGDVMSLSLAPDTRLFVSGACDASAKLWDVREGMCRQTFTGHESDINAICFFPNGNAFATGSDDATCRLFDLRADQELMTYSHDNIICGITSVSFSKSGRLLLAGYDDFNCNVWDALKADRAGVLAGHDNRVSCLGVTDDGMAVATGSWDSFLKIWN

In experiment [1] the target is T1, wild-type (WT) receptor(1–553)-LgBiT (human) (UniProt O95838).
T1 sequence: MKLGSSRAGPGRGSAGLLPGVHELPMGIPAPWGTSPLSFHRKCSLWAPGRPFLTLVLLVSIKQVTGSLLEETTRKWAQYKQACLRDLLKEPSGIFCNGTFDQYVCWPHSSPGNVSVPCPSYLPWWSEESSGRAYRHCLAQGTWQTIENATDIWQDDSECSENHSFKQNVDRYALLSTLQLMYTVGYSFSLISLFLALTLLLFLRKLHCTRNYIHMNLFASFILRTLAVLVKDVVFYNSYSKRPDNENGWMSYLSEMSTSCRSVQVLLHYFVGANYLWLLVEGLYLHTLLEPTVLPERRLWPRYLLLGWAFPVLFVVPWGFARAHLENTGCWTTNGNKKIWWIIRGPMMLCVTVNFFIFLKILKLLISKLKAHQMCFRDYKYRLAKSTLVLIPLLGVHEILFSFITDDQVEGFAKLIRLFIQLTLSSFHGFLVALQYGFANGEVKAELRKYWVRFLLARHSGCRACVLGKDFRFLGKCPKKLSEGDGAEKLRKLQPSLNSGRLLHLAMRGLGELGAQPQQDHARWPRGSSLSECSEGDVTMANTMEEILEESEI
Briefly: split reporter; HEK 293T cells transfected 1:1 with receptor-LgBiT and Gβ-SmBiT or Gβ-HiBiT; coelenterazine H 5 μM; luminescence before and after ligand addition, 25 °C.

The target of experiment [2] is T2, GLP-2R(1-490)-TEV-OMBP-MBP (human) (UniProt O95838).
T2 sequence: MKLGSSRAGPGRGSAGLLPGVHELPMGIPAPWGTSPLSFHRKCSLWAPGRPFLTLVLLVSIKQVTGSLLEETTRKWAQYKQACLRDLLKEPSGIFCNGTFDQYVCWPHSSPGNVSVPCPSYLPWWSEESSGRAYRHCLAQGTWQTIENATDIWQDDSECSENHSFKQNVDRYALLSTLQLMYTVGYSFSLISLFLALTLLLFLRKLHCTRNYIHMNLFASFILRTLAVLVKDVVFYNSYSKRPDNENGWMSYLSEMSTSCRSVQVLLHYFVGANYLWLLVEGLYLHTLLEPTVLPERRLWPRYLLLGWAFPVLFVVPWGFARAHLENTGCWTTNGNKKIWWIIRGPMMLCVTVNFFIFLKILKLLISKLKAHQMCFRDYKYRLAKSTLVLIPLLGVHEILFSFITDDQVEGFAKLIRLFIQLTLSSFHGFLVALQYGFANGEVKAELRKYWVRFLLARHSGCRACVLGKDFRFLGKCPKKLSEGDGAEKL
Put plainly: SEC; receptor and G protein subunits co-expressed in Sf9 without NanoBiT tethering; complex formed with GLP-2 and Nb35, solubilised in LMNG/CHS, held on amylose resin, Superdex 200 Increase 10/30; fractions of the 11 ml peak on SDS-PAGE, Coomassie.

These are yes or no findings as the source states them, for the method shown. For some assays here: Binding seen in cells or lysates may run through a third protein. Some binding calls cover weakened binding; strength is not graded here. For some assays here: Tags and fused reporters may be left off the sequences shown.

Consider Gβ-SmBiT (from UniProt P54311 1-340), for which the binding entry in experiment [1] is reported as “binds”. For rat Gβ1 (from UniProt P54311 1-340), the binding entry in experiment [2] is recorded as “binds”.
